{"source": "patent US6689803B2", "about": "“Compositions and methods for treating surgical adhesions” (Angiotech Pharmaceuticals, Inc., priority 1996, dated 2004)", "tested_on": "chick chorioallantoic membrane (CAM) vasculature", "note": "Like-named read-outs stand apart in the source and are kept apart here. At least one read-out could not be matched to a standard name with certainty.", "data": [{"smiles": "O=c1c(-c2ccc(O)cc2)coc2cc(O)cc(O)c12", "note": "[genistein]", "values": [{"measurement": "Inhibition/n", "setting": "PCL paste (3 mg), 10%", "result": "0/7"}, {"measurement": "Inhibition/n", "setting": "PCL paste (3 mg), 20%", "result": "0/4"}]}, {"smiles": "CN(Cc1cnc2nc(N)nc(N)c2n1)c1ccc(C(=O)N[C@@H](CCC(=O)O)C(=O)O)cc1", "note": "[methotrexate]", "values": [{"measurement": "Inhibition/n", "setting": "95PCL:5MePEG paste (3 mg), 1%", "result": "0/6"}, {"measurement": "Inhibition/n", "setting": "95PCL:5MePEG paste (3 mg), 10%", "result": "0/5"}, {"measurement": "Inhibition/n", "setting": "PCL paste (3 mg), 1%", "result": "0/13"}, {"measurement": "Inhibition/n", "setting": "PCL paste (3 mg), 2%", "result": "0/3"}, {"measurement": "Inhibition/n", "setting": "PCL paste (3 mg), 20%", "result": "0/1"}, {"measurement": "Inhibition/n", "setting": "PCL:MePEG paste (3 mg), 2%", "result": "1/1"}, {"measurement": "Inhibition/n", "setting": "methylcellulose (10 ul), 2 ug", "result": "0/8"}]}, {"smiles": "CC(=O)OCC(=O)[C@@]1(O)CC[C@H]2[C@@H]3CCC4=CC(=O)C=C[C@]4(C)[C@H]3[C@@H](O)C[C@@]21C", "note": "[prednisolone acetate]", "values": [{"measurement": "Inhibition/n", "setting": "ophthalmic suspension (2 × 10 ul), 1%", "result": "3/4"}, {"measurement": "Inhibition/n", "setting": "ophthalmic suspension (2 × 15 ul), 1%", "result": "1/1"}]}, {"smiles": "CC[C@@]1(O)C(=O)OCc2c1cc1n(c2=O)Cc2cc3ccccc3nc2-1", "note": "[camptothecin]", "values": [{"measurement": "Inhibition/n", "setting": "PCL paste (3 mg), 0.25%", "result": "3/4"}, {"measurement": "Inhibition/n", "setting": "PCL paste (3 mg), 1%", "result": "2/3"}, {"measurement": "Inhibition/n", "setting": "PCL paste (3 mg), 5%", "result": "4/5"}]}]}
